The list shows a part of the results.

Protein sequences, listed by entry. Tags and fused reporters are not part of them. Lines headed by an entry give the natural chain unless they say otherwise; changes in a name come on top.
UniProt Q9BUV8: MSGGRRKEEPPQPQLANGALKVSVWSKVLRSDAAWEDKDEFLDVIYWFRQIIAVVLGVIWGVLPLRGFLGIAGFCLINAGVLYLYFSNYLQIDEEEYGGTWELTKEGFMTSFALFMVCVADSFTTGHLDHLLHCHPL
UniProt Q92930: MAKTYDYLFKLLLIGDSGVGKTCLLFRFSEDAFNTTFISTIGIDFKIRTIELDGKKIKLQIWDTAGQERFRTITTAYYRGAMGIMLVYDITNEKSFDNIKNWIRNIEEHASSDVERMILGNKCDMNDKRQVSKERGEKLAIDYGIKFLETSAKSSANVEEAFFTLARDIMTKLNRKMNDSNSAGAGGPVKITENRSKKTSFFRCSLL
UniProt P11233: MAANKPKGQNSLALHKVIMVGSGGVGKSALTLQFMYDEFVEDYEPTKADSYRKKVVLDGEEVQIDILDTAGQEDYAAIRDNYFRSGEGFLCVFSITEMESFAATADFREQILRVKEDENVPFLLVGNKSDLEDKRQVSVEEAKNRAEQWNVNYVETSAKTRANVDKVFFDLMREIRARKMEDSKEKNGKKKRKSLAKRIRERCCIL
UniProt Q9P0K7: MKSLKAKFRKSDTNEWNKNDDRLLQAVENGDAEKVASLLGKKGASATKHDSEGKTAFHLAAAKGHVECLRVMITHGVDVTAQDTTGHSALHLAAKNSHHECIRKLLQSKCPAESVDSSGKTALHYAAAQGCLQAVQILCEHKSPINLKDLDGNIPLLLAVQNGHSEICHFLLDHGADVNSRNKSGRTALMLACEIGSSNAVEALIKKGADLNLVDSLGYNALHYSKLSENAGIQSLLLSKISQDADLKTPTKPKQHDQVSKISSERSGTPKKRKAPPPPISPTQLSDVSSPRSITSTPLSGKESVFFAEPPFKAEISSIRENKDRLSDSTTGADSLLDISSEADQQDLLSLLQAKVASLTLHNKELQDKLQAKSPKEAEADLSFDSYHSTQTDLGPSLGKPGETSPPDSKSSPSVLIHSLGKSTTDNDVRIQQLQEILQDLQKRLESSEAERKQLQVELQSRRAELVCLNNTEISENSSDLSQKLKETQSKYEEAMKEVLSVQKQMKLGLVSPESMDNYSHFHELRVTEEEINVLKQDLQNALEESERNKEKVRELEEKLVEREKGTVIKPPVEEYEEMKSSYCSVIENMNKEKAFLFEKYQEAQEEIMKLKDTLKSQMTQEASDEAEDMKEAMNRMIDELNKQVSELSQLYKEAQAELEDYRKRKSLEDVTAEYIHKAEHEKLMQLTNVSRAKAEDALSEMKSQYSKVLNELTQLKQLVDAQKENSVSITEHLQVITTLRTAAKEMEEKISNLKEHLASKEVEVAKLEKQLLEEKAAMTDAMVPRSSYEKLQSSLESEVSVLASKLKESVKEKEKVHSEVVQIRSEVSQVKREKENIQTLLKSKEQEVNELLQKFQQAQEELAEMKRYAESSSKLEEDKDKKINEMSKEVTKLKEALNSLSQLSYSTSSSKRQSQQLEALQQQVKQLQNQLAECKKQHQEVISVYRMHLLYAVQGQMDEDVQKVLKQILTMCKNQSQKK
UniProt Q8WZA2: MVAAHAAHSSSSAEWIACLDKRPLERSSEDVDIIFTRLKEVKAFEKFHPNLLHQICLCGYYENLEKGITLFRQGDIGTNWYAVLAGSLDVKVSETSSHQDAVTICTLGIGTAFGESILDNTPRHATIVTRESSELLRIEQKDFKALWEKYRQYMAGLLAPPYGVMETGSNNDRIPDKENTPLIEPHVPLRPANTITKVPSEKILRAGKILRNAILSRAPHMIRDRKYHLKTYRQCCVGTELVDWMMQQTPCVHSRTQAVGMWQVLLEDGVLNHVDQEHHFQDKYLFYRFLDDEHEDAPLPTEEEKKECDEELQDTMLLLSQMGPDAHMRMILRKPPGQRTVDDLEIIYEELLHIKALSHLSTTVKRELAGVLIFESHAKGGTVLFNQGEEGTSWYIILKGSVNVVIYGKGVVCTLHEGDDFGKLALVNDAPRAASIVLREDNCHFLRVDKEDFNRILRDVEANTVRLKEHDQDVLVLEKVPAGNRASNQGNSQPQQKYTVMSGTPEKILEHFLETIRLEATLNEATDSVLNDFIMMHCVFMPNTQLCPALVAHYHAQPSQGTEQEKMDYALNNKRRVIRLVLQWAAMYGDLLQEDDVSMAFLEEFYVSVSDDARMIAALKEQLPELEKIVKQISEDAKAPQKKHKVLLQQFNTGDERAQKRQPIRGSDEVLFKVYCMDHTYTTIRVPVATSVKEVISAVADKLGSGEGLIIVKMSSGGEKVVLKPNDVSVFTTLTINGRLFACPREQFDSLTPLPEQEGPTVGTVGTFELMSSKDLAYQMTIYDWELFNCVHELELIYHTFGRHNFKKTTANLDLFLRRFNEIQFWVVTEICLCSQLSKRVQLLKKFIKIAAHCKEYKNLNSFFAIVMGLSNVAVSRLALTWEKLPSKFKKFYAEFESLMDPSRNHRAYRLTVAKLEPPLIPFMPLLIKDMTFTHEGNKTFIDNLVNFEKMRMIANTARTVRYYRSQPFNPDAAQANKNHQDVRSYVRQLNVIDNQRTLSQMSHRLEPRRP
UniProt Q8TDY2, whole entry, looked up: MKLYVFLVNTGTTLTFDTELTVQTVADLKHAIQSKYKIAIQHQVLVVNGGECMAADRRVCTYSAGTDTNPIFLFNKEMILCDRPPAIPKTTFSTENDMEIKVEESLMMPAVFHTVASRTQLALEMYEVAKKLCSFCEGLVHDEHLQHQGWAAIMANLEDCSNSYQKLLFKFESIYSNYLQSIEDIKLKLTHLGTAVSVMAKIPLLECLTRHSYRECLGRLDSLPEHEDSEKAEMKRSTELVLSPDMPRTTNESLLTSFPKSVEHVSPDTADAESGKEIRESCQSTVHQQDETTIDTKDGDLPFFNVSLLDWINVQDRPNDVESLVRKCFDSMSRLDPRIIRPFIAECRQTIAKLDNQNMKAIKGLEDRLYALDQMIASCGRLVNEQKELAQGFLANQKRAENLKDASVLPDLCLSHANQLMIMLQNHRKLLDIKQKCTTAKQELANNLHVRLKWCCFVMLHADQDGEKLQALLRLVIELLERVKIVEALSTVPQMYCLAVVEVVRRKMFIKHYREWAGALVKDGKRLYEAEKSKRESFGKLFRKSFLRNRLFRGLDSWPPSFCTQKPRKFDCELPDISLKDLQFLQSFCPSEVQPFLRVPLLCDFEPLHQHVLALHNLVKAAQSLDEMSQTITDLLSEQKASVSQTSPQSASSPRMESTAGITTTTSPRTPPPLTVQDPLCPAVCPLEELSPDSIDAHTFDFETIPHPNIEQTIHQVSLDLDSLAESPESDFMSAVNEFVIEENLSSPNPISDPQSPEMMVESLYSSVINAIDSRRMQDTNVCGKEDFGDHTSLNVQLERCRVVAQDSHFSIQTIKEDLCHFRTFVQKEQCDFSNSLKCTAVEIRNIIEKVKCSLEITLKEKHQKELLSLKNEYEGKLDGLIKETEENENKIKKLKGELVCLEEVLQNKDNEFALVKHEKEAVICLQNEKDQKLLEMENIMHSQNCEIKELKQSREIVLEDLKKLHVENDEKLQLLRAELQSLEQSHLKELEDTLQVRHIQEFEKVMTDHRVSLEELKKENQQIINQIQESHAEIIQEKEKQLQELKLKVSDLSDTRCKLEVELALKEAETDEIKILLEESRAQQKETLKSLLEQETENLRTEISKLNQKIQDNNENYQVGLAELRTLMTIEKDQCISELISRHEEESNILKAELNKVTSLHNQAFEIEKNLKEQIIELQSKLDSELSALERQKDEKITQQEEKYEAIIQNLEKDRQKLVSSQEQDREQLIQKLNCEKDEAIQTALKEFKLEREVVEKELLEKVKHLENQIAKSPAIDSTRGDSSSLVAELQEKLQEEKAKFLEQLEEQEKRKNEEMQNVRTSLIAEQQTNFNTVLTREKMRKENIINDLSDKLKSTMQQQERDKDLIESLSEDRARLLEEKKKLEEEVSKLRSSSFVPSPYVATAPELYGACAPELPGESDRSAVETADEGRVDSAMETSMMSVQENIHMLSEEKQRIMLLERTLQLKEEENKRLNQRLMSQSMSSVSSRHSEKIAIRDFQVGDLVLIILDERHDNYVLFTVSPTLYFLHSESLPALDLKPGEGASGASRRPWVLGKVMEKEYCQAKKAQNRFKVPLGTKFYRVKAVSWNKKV
UniProt P06400: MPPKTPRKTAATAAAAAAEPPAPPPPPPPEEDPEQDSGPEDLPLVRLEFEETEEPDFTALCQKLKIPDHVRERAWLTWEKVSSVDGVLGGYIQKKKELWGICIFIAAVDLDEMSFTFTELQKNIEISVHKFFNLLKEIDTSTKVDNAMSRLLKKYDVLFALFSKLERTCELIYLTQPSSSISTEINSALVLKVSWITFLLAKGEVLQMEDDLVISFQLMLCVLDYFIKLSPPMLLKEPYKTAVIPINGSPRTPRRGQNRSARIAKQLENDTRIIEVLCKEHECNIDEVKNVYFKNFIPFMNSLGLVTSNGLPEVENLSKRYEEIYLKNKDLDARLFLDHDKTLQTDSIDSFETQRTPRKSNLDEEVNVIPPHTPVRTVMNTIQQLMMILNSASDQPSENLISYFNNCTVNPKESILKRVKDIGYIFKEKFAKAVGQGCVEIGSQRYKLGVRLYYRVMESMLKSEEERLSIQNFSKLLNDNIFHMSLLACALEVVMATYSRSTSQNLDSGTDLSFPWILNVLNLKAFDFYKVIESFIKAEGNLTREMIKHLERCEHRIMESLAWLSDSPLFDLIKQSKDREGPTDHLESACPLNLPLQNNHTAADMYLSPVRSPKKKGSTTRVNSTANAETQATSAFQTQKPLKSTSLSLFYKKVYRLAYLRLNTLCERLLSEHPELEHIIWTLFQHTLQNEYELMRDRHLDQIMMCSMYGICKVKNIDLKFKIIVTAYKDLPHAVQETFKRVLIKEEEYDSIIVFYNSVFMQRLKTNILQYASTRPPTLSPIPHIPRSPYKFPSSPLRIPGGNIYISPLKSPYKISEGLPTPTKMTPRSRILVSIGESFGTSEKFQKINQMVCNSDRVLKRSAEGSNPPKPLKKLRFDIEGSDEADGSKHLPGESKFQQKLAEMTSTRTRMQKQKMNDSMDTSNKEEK
UniProt Q9H2M9: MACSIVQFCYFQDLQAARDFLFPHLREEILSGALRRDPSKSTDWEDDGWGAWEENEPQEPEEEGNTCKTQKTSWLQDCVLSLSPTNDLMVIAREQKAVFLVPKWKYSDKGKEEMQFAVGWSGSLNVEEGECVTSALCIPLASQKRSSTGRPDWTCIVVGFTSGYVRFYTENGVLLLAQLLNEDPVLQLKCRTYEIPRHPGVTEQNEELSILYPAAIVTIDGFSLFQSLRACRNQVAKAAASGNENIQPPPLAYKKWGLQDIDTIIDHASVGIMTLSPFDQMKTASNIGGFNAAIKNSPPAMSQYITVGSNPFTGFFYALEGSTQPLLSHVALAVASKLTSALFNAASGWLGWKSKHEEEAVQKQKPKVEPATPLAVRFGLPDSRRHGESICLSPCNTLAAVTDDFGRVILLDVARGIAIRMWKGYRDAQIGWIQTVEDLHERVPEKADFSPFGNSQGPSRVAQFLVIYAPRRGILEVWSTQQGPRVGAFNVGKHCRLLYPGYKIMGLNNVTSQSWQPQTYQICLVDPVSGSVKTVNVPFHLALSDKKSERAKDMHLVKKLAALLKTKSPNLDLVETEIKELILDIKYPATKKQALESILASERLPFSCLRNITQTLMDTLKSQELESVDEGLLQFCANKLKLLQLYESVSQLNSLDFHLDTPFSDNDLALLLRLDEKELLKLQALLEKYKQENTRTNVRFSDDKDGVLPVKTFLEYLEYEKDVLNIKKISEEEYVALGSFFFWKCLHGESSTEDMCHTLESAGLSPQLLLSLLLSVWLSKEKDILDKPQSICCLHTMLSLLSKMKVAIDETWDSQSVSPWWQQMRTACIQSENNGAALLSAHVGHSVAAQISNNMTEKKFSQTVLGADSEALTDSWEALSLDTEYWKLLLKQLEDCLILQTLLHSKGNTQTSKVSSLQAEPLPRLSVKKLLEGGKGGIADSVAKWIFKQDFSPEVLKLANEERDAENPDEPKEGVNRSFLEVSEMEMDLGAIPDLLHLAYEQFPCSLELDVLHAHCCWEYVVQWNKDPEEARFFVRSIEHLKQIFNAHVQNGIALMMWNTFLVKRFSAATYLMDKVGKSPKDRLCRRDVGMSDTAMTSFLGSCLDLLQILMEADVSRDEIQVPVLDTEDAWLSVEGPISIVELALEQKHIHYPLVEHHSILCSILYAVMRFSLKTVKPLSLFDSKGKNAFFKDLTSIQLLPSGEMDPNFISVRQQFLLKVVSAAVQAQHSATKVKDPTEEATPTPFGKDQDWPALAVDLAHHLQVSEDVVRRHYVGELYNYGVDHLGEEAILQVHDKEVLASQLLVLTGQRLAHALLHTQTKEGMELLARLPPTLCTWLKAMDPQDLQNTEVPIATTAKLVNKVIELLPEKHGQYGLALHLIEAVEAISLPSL

Compound in this assay: CC1=C(C2=C(C=C1)C(=O)C3=CC=CC=C3N2CCCN)C
The experiment in a line: log2 fold change, soluble protein after heating vs DMSO (PISA); higher = thermal stabilisation; K562 cells, 10 uM, 30 min; active = over 0.2 and 3.5 SD of the protein, either way, in both replicates (recomputed). Put shortly: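 Soluble protein was quantified by TMTpro 16plex LC-MS/MS after channel sums were equalised. It was obtained as the supernatant after 21,000xg for 90 min from pooled aliquots of K562 cells (2×10^6 cells/mL, 10 μM compound, 30 min) heated for 3 min across 48°C-58°C and extracted in PBS with 0.5% NP-40 at 4°C. Thermal stability values are relative to control samples and come from duplicates. They are given as log2 fold changes.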
On to RAB5IF isoform 5 (UniProt Q9BUV8), for which the log2 fold change is inactive: -0.036. Under RAB8B (UniProt Q92930) stands inactive: 0.004; under RACK1 (UniProt D6RHH4), inactive: -0.009; under RALA (UniProt P11233), inactive: 0.054. On to RAB3IL1 (UniProt E9PK89), for which the log2 fold change was inactive: -0.005. Under RABGAP1L isoform 5 (UniProt Q5R372) stands inactive: -0.271.

RAVER1 (UniProt E9PAU2): the log2 fold change was inactive: -0.694. Under RAI14 isoform 2 (UniProt Q9P0K7) stands inactive: -0.16. Under RALY (UniProt Q9UKM9) stands inactive: -0.311. Under RAPGEF4 (UniProt Q8WZA2) stands inactive: 0.109; under RB1CC1 (UniProt Q8TDY2), inactive: 0.041. For RAB11FIP1 (UniProt Q6WKZ4), the log2 fold change is inactive: 0.041. In the case of RB1 (UniProt P06400), the log2 fold change is inactive: -0.035.

As for RAB3GAP2 (UniProt Q9H2M9), the log2 fold change was inactive: -0.016. Under RAF1 isoform 2 (UniProt P04049) stands inactive: 0.09. Under RALGPS2 (UniProt Q86X27) stands inactive: 0.029.

Values taken from the supplement of paper PMC10849652.
